The other results are listed elsewhere or left out.
Compound: CC1Cc2ccccc2N1C(=O)C1CCCN(C1)C(=O)CCl (mixture of isomers) [TRIM25 ligand 11 (diastereomer mixture)]
Experiment: probe-labelled cysteine peptide fold change vs DMSO (competition) (log2 fold change); higher = less target engagement (more negative = stronger competition)
Details: THP-1, incubation time: 4 h
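Also: competitive chemoproteomic profiling in live THP-1 cells with an iodoacetamide desthiobiotin (IA-DTB) probe, comparing probe-labelled peptide intensities in compound-treated cells against DMSO-treated controls.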

Amino acid sequences for entries named in this document (tags omitted). A change or cut given only in a name is not applied to a line headed by its entry.
UniProt P28482, whole entry, looked up: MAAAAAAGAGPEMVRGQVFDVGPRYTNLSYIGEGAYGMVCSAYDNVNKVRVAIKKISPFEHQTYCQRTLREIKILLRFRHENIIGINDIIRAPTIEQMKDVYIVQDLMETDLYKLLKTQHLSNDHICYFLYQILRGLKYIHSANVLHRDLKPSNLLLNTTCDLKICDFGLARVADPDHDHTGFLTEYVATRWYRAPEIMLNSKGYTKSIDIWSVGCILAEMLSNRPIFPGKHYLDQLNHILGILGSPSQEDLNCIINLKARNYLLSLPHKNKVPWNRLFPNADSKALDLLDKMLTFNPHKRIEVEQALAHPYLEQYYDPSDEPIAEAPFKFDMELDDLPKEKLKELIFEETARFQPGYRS
UniProt Q9NQ29: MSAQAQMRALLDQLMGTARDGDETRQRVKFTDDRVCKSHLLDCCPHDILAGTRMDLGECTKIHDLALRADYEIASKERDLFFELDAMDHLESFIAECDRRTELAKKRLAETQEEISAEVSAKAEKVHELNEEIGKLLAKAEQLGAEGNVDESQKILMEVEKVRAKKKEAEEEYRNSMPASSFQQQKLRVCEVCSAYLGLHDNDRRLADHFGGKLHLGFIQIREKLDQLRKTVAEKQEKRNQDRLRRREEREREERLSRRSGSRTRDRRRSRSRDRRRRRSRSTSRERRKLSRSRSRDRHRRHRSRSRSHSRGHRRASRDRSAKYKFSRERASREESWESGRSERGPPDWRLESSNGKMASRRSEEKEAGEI
UniProt Q7L5Y9: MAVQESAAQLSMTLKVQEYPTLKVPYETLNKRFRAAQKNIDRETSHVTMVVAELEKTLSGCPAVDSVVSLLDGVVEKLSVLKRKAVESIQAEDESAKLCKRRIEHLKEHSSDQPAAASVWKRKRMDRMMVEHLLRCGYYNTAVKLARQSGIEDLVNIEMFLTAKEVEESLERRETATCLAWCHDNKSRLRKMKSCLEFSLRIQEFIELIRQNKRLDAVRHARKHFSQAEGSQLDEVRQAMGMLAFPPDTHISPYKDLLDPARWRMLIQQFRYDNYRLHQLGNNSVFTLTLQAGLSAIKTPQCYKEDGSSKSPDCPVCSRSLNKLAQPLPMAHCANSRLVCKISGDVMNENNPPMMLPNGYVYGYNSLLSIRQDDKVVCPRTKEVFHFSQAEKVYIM
UniProt Q99698: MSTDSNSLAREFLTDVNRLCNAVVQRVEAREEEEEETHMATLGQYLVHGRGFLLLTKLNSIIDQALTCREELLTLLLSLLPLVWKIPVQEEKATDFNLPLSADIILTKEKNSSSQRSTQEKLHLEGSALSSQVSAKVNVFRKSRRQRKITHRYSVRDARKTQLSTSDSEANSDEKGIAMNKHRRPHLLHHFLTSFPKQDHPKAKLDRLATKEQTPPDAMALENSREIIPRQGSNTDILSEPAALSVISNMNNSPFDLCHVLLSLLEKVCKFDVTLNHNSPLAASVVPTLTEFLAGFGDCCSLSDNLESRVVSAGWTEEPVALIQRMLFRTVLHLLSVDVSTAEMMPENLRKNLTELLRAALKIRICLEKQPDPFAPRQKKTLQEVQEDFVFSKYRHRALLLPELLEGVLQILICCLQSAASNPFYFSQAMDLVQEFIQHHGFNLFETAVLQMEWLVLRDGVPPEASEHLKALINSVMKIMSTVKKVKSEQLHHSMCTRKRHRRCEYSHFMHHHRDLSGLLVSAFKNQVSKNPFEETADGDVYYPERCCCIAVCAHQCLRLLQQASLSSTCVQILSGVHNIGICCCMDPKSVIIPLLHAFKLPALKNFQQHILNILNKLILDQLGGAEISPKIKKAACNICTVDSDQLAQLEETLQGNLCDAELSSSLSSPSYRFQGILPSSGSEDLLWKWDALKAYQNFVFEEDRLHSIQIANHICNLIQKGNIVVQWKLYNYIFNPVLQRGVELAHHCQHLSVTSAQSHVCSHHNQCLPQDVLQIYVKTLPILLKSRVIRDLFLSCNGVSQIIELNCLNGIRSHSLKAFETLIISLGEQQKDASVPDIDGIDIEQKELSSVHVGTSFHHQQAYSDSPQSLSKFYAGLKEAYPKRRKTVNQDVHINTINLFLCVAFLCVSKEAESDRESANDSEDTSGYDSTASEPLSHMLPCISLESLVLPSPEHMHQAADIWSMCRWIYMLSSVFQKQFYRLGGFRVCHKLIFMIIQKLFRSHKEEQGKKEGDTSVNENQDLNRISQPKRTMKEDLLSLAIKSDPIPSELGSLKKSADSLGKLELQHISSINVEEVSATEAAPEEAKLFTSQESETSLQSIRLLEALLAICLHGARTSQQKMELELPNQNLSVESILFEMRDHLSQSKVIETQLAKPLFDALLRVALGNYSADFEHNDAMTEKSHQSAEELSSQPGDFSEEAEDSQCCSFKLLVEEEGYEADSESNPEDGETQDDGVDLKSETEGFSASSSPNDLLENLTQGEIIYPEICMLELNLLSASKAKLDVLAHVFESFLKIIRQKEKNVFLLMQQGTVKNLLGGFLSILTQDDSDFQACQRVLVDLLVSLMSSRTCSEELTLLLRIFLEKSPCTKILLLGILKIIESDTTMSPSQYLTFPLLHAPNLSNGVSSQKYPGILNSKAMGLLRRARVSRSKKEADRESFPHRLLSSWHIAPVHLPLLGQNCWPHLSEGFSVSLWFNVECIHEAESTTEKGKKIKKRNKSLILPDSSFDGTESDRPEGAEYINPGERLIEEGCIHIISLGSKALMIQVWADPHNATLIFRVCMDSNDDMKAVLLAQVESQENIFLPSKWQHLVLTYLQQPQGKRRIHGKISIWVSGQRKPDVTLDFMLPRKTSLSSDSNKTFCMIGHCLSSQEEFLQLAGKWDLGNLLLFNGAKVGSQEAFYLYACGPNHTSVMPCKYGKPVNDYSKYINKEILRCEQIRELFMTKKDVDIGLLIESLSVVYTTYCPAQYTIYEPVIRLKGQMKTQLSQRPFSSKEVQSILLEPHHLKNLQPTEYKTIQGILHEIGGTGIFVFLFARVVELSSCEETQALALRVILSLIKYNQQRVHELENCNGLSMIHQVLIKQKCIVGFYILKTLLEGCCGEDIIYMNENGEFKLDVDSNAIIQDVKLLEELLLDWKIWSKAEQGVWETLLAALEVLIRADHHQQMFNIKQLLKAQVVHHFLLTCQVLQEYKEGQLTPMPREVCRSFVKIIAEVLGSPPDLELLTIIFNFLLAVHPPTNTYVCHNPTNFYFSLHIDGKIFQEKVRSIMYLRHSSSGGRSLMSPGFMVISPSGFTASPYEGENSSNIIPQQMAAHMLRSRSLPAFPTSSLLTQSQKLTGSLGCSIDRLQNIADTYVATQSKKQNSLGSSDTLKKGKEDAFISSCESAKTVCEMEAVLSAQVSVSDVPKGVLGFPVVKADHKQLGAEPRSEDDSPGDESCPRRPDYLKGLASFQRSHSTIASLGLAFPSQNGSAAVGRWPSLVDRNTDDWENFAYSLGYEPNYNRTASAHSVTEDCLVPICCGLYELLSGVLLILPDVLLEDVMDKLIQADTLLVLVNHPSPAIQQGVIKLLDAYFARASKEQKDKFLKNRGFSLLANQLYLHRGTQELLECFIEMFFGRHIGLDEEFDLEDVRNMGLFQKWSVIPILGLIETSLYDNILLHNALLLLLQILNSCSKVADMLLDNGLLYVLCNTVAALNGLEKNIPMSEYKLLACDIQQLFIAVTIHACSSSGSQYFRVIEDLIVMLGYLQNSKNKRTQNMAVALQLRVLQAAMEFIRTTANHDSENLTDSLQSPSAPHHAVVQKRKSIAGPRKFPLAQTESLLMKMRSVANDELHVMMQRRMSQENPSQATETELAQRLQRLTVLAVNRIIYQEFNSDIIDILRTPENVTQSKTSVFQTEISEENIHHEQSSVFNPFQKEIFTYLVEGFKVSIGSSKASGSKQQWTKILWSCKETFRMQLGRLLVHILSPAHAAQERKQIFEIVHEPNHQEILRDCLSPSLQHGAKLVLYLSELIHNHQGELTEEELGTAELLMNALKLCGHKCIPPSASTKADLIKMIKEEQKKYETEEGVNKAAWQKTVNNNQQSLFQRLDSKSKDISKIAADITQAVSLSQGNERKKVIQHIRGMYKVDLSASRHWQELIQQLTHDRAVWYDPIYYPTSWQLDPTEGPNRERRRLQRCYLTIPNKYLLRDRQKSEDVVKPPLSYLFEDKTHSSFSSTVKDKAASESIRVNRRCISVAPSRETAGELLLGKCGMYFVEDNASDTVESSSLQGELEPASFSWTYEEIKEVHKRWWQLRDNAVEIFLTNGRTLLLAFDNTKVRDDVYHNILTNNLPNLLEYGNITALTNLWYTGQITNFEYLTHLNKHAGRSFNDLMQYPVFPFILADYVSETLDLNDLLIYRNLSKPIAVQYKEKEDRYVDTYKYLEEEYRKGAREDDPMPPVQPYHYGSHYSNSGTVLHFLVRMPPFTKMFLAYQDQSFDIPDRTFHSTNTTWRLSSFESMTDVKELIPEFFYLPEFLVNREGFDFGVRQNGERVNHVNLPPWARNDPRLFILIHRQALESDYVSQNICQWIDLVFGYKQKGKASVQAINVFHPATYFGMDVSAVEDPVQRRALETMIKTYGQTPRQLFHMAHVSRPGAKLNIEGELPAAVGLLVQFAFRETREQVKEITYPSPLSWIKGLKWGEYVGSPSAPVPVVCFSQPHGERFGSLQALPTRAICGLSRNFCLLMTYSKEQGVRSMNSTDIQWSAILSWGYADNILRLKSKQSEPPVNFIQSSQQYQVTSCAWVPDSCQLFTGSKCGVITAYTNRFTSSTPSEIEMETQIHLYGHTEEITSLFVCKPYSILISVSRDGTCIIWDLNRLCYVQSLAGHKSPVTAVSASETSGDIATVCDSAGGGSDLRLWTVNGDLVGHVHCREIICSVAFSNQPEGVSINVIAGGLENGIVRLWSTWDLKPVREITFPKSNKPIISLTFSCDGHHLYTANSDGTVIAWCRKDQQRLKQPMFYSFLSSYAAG
UniProt Q16539, whole entry, looked up: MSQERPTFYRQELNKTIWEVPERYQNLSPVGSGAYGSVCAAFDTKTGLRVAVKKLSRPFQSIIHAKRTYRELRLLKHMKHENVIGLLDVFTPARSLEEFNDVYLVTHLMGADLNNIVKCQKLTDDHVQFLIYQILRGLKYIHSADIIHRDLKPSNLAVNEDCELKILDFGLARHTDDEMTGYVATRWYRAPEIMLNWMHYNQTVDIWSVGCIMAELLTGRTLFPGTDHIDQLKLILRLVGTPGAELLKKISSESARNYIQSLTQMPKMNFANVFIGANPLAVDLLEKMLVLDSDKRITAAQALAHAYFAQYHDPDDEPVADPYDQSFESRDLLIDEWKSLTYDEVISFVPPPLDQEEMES
UniProt Q5VT66: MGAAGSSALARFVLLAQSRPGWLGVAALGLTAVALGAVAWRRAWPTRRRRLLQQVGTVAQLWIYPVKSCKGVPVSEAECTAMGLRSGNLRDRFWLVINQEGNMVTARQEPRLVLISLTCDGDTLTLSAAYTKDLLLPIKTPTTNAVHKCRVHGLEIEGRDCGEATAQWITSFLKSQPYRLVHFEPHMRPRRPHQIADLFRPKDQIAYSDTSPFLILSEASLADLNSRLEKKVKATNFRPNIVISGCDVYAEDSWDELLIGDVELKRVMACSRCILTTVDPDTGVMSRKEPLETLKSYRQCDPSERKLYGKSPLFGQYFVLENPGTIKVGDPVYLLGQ
UniProt P27361, whole entry, looked up: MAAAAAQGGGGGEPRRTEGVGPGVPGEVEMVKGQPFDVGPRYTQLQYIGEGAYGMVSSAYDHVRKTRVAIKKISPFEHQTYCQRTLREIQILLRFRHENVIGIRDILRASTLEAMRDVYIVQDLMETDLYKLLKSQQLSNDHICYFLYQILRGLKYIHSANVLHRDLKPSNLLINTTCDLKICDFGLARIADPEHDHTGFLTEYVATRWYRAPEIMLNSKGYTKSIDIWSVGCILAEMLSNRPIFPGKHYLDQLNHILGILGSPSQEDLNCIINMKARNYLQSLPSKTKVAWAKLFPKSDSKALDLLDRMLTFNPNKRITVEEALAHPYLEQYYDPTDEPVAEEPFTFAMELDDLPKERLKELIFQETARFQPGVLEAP
UniProt P53778: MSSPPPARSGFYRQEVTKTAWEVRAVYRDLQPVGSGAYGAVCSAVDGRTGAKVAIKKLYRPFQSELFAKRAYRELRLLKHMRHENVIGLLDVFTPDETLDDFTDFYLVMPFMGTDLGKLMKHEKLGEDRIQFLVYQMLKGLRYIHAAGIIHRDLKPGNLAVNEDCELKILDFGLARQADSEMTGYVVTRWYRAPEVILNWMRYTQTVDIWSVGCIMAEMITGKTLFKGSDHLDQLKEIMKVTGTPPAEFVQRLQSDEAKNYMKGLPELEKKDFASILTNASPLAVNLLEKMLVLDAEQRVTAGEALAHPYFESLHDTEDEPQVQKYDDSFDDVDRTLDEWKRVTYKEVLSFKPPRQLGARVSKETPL

| Target | probe-labelled cysteine peptide fold change (10 µM) | probe-labelled cysteine peptide fold change (50 µM) |
| --- | --- | --- |
| MAPK1_P28482_40_YTNLSYIGEGAYGMVCSAYDNVNK (UniProt P28482) | 0.0245 | -0.0417 |
| LUC7L_Q9NQ29_44_SHLLDCCPHDILAGTR (UniProt Q9NQ29) | -0.0733 | -0.0524 |
| MACF1_Q9UPN3_4752_EAQTLCDELSVLIGEQYLK (UniProt Q9UPN3) | -0.221 | 0.211 |
| MACF1_Q9UPN3_986_SSAPGECHQIMK (UniProt Q9UPN3) | -0.0377 | 0.0156 |
| MAP3K20_Q9NYL2_231_LTIPSSCPR (UniProt Q9NYL2) | -0.0691 | 0.0125 |
| MAEA_Q7L5Y9_136_CGYYNTAVK (UniProt Q7L5Y9) | -0.0355 | 0.121 |
| LYST_Q99698_3586_CGVITAYTNR (UniProt Q99698) | 0.109 | -0.028 |
| MAPK14_Q16539_162_DLKPSNLAVNEDCELK (UniProt Q16539) | 0.12 | 0.0327 |
| LYST_Q99698_3649_LCYVQSLAGHK (UniProt Q99698) | 0.0365 | -0.124 |
| LUC7L_Q9NQ29_97_ERDLFFELDAMDHLESFIAECDR (UniProt Q9NQ29) | -0.137 | -0.000223 |
| MARC1_Q5VT66_79_GVPVSEAECTAMGLR (UniProt Q5VT66) | -0.00294 | -0.0671 |
| MAPK3_P27361_82_ISPFEHQTYCQR (UniProt P27361) | 0.151 | 0.0648 |
| MACF1_Q9UPN3_5346_IAQLQEALLHCGK (UniProt Q9UPN3) | 0.031 | 0.000666 |
| MAPK12_P53778_42_DLQPVGSGAYGAVCSAVDGR (UniProt P53778) | 0.00717 | -0.322 |

Reprinted at random: 2 records from the list

| Target | probe-labelled cysteine peptide fold change (10 µM) | probe-labelled cysteine peptide fold change (50 µM) |
| --- | --- | --- |
| MACF1_Q9UPN3_4752_EAQTLCDELSVLIGEQYLK (UniProt Q9UPN3) | -0.221 | 0.211 |
| MACF1_Q9UPN3_986_SSAPGECHQIMK (UniProt Q9UPN3) | -0.0377 | 0.0156 |
